Measurements published in US20150335707A1.
No constants are given. Whether binding was seen depends on the method and setting. For part of these data: In cells and extracts the contact can be indirect. Some results given as binding are weak or reduced against the parent protein; the word gives no strength. For part of these data: Sequences can lack the tags named with a protein. Values belong to the binder of their own block, whether it stands above or below them.

By UniProt entry, the sequences of proteins in these tests, tags left out. Residues count along the entry.
UniProt P06869, residues 21-433: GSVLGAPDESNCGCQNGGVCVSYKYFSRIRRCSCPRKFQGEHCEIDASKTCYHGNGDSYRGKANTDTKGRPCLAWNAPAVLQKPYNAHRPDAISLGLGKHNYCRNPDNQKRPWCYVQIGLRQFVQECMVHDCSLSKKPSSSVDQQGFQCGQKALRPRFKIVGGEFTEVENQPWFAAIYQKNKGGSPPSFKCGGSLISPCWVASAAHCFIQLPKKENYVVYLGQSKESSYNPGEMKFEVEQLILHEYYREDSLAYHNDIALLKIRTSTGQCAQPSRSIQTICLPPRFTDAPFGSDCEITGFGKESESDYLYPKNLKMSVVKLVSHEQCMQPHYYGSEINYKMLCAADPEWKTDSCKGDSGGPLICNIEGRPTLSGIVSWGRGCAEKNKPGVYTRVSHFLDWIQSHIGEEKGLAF

Key:
uPA in kidney lysate [1] = target: uPA in kidney lysate (UniProt P06869); assay: pull-down: His-Slurp1 on Ni-ion resin incubated with kidney lysate, bound uPA detected by anti-uPA immunoblot
uPA in kidney lysate [2] = target: uPA in kidney lysate (UniProt P06869); assay: ligand blot: kidney lysate separated by non-denaturing PAGE, overlaid with His-Slurp1, probed with anti-Slurp1, re-probed with anti-uPA
[3] = target: urokinase-type plasminogen activator (uPA) (UniProt P06869); assay: summary of FIGS. 13-17
[4] = target: urokinase-type plasminogen activator (uPA) (UniProt P06869); assay: ligand blots, ELISA and pull-down assays
[5] = target: MBP-uPA fusion protein (recombinant, expressed in E. coli, partially purified on amylose column) (UniProt P06869); assay: ELISA: MBP-Slurp1 coated, MBP-uPA layered, detected with anti-uPA antibody; MBP-coated wells as control
[6] = target: cleaved, partially purified uPA (UniProt P06869); assay: ELISA: MBP-Slurp1 coated, cleaved uPA layered, detected with anti-uPA antibody; MBP-coated wells as control

binding (uPA in kidney lysate [1]): binds
binding (uPA in kidney lysate [2]): binds
B1: 6× His-Slurp1 (recombinant, expressed in E. coli, partially purified on nickel-ion column) (ligand, UniProt Q9Z0K7 23-110, looked up, not shown: small tags and cut ends)
chain: FRCYTCEQPTAINSCKNIAQCKMEDTACKTVLETVEAAFPFNHSPMVTRSCSSSCLATDPDGIGVAHPVFCCFRDLCNSGFPGFVAGL

binding [3]: binds
binding [4]: binds
B2: Slurp1 (secreted Ly-6/urokinase plasminogen activator receptor-related protein-1) (ligand, UniProt Q9Z0K7 23-110, looked up)
chain: B1 chain

binding [5]: binds
binding [6]: binds
B3: MBP-Slurp1 fusion protein (expressed in E. coli, purified through amylose resin) (protein, UniProt Q9Z0K7 23-110, looked up, not shown: large carriers)
chain: B1 chain
